In this series the target is T1, Sco1678 (GntR-His) (Streptomyces coelicolor M145) (UniProt Q9AD89).
T1 sequence (looked up): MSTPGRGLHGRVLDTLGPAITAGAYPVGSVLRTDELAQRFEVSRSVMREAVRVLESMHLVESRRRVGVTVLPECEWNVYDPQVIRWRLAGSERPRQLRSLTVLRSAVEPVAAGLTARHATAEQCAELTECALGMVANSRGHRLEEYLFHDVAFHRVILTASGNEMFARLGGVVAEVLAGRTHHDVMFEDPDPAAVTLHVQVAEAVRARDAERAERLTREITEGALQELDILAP
Put plainly: EMSA. Particulars: DNA not completely released, 20 mM Tris/HCl pH 7.5, 50 mM KCl, 10 mM MgCl2, 5% (v/v) glycerol, 0.5 mM EDTA, 25 min at 25 C, 0.2 pmol Cy5 probe, 0.93-4.18 pmol protein, 8% native PAGE, 1x TBE, recombinant protein, residues 1-233, protein details: C-terminal His6, label: Cy5, probe letters rebuilt from the primers and the ….

The exact form of at least one protein or probe is not confirmed. The comparison behind a weaker result is the experiment's own reference, which may not be listed here. Protein sequences can lack the tags named with them.

Consider “AGCCAGTGGCGATAAGGTTGCTGCATCGCACTCTCGCTGTCTGCTGTCTTCGTCGACACCTGATGTCGACGCAACTGAAACTCATTAGTACGACAACTTCAAGAGTCTGTGACGTATAAGTCTGACTTTTTGTTCCCGTGACATGCCCCGTACGCTGAGTGCATGAGCACACCGGGCCGGGGGCTGCACGGCCGCGTACTGGACACCCTCGGCCCCGCGATCACAGCTTATCGCCACTGGCT (double strand) [gntR-gntK intergeneric region]”, for which the binding result (5 mM gluconate) is recorded as “binds more weakly” and the binding result (5 mM glucono-1,5-lactone) is “binds more weakly”.
